Source: PubChem BioAssay AID743458 (Peter MacCallum Cancer Centre, 2014)
In all, the deposit lists about 1,800 reagents; this is a random part of them. Over the whole deposit, 732 (41%) got an active call. 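Calls are per siRNA reagent; a gene was deemed confirmed only if most of its four siRNAs scored.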 Reagents against one gene are numbered here.

- Assay: 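Identify genes whose loss lifts vorinostat resistance in colon cancer cells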 (follow-up of hits)
- Cells: human HCT116-VR colon cancer cells made resistant to vorinostat
- Knock-down reagent: single siRNA or pool against human genes, 25 nM per single siRNA
- Timing: about 72 h after transfection, including 24 h of drug
- Conditions: vorinostat, 2.5 µM final, for 24 h
- Measurement: 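Live-cell fluorescent viability and luminescent caspase 3/7 activity after vorinostat treatment, background subtracted, mean of duplicate plates, as fold change over mock-transfected wells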
- Scale: viability relative to mock: higher = more living cells than mock; caspase activity relative to mock: higher = more apoptosis than mock
- Call rule: 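An siRNA counts as active if classed as reduced viability or as caspase activation, otherwise inactive; a hit class needed wells that remained healthy in the absence of drug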

What is on record for TACC1 (transforming acidic coiled-coil containing protein 1) #1?
viability relative to mock: 0.94; caspase activity relative to mock: 2.18; viability hit class: no change; caspase hit class: no change; Call: inactive

What did the screen give for TACC1 (transforming acidic coiled-coil containing protein 1) #2?
viability relative to mock: 0.98; caspase activity relative to mock: 1.18; viability hit class: no change; caspase hit class: no change; Call: inactive

How did the screen score TACC1 (transforming acidic coiled-coil containing protein 1) #3?
viability relative to mock: 0.91; caspase activity relative to mock: 1.2; viability hit class: no change; caspase hit class: no change; Call: inactive

Which result is listed for TACC1 (transforming acidic coiled-coil containing protein 1) #4?
viability relative to mock: 0.77; caspase activity relative to mock: 3.21; viability hit class: no change; caspase hit class: caspase activation; Call: active

Which result is listed for MAGOH (mago homolog, exon junction complex subunit) #1?
viability relative to mock: 0.28; caspase activity relative to mock: 3.56; viability hit class: reduced viability; caspase hit class: caspase activation; Call: active

How did the screen score MAGOH (mago homolog, exon junction complex subunit) #2?
viability relative to mock: 0.47; caspase activity relative to mock: 2.45; viability hit class: reduced viability; caspase hit class: no change; Call: active

For MAGOH (mago homolog, exon junction complex subunit) #3, how do the results read?
viability relative to mock: 0.6; caspase activity relative to mock: 1.6; viability hit class: no change; caspase hit class: no change; Call: inactive

Which result is listed for MAGOH (mago homolog, exon junction complex subunit) #4?
viability relative to mock: 0.18; caspase activity relative to mock: 3.12; viability hit class: reduced viability; caspase hit class: caspase activation; Call: active

With DBX1 (developing brain homeobox 1) #1, what was measured?
viability relative to mock: 0.56; caspase activity relative to mock: 2.88; viability hit class: reduced viability; caspase hit class: caspase activation; Call: active

What is on record for DBX1 (developing brain homeobox 1) #2?
viability relative to mock: 0.91; caspase activity relative to mock: 1.28; viability hit class: no change; caspase hit class: no change; Call: inactive

With DBX1 (developing brain homeobox 1) #3, what was measured?
viability relative to mock: 0.2; caspase activity relative to mock: 2.52; viability hit class: no change; caspase hit class: no change; Call: inactive

How did the screen score DBX1 (developing brain homeobox 1) #4?
viability relative to mock: 0.64; caspase activity relative to mock: 2.98; viability hit class: no change; caspase hit class: caspase activation; Call: active

Sorted by “caspase activity relative to mock” (lowest first): 4 of the entries above
TACC1 (transforming acidic coiled-coil containing protein 1) #2 | viability relative to mock: 0.98; caspase activity relative to mock: 1.18; viability hit class: no change; caspase hit class: no change; Call: inactive
TACC1 (transforming acidic coiled-coil containing protein 1) #3 | viability relative to mock: 0.91; caspase activity relative to mock: 1.2; viability hit class: no change; caspase hit class: no change; Call: inactive
TACC1 (transforming acidic coiled-coil containing protein 1) #1 | viability relative to mock: 0.94; caspase activity relative to mock: 2.18; viability hit class: no change; caspase hit class: no change; Call: inactive
TACC1 (transforming acidic coiled-coil containing protein 1) #4 | viability relative to mock: 0.77; caspase activity relative to mock: 3.21; viability hit class: no change; caspase hit class: caspase activation; Call: active

The list goes on.
What did the screen give for DUS1L (dihydrouridine synthase 1 like) #1?
viability relative to mock: 0.27; caspase activity relative to mock: 4.05; viability hit class: reduced viability; caspase hit class: caspase activation; Call: active

With DUS1L (dihydrouridine synthase 1 like) #2, what was measured?
viability relative to mock: 0.95; caspase activity relative to mock: 2.06; viability hit class: no change; caspase hit class: no change; Call: inactive

How did the screen score DUS1L (dihydrouridine synthase 1 like) #3?
viability relative to mock: 0.72; caspase activity relative to mock: 1.63; viability hit class: no change; caspase hit class: no change; Call: inactive

How did the screen score DUS1L (dihydrouridine synthase 1 like) #4?
viability relative to mock: 0.84; caspase activity relative to mock: 0.76; viability hit class: no change; caspase hit class: no change; Call: inactive

Which result is listed for NKX2-1 (NK2 homeobox 1) #1?
viability relative to mock: 0.92; caspase activity relative to mock: 0.72; viability hit class: no change; caspase hit class: no change; Call: inactive

With NKX2-1 (NK2 homeobox 1) #2, what was measured?
viability relative to mock: 0.84; caspase activity relative to mock: 1.82; viability hit class: no change; caspase hit class: no change; Call: inactive

What did the screen give for NKX2-1 (NK2 homeobox 1) #3?
viability relative to mock: 0.55; caspase activity relative to mock: 3.75; viability hit class: reduced viability; caspase hit class: caspase activation; Call: active

With NKX2-1 (NK2 homeobox 1) #4, how do the results read?
viability relative to mock: 0.44; caspase activity relative to mock: 2.96; viability hit class: reduced viability; caspase hit class: caspase activation; Call: active

What did the screen give for GALK1 (galactokinase 1) #1?
viability relative to mock: 0.88; caspase activity relative to mock: 3.59; viability hit class: no change; caspase hit class: caspase activation; Call: active

For GALK1 (galactokinase 1) #2, how do the results read?
viability relative to mock: 0.6; caspase activity relative to mock: 1.84; viability hit class: no change; caspase hit class: no change; Call: inactive

What did the screen give for GALK1 (galactokinase 1) #3?
viability relative to mock: 0.7; caspase activity relative to mock: 4.06; viability hit class: no change; caspase hit class: caspase activation; Call: active

With GALK1 (galactokinase 1) #4, what was measured?
viability relative to mock: 1.03; caspase activity relative to mock: 1.2; viability hit class: no change; caspase hit class: no change; Call: inactive

Which result is listed for NPEPL1 (aminopeptidase like 1) #1?
viability relative to mock: 0.78; caspase activity relative to mock: 0.66; viability hit class: no change; caspase hit class: no change; Call: inactive

For NPEPL1 (aminopeptidase like 1) #2, what does the deposit list?
viability relative to mock: 0.78; caspase activity relative to mock: 1.03; viability hit class: no change; caspase hit class: no change; Call: inactive

For NPEPL1 (aminopeptidase like 1) #3, what does the deposit list?
viability relative to mock: 0.54; caspase activity relative to mock: 1.73; viability hit class: reduced viability; caspase hit class: no change; Call: active

Which result is listed for NPEPL1 (aminopeptidase like 1) #4?
viability relative to mock: 0.74; caspase activity relative to mock: 0.83; viability hit class: no change; caspase hit class: no change; Call: inactive
